Test results as given in PubChem BioAssay AID344 (DTP/NCI, 2004).
The list is a part of this screen's results and no random one: its compounds were picked by chemical class. Not every dose and run of a compound is shown. T/C gives the treated animals as a percentage of the vehicle group. Where survival is the endpoint, the PubChem record calls one and a half times the control and up active, and a quarter to a half above the control has no call in these data; cut-offs in other NCI protocols can differ. Some entries show no survivor count and are marked so; the dose need not have been tolerated. Schedules are NCI's codes, taken here to give the interval after Q, in days (D) or hours (H), and the number of doses after X. Some entries were tested several times; the values are given in rising order. Some schedule codes hold Z or #, which are not explained here.

System: mice, LPC-1 plasma cell tumor ip, median survival T/C
Assay: NCI In Vivo Anticancer Drug Screen. Data for tumor model Lieberman Plasma Cell No. 1 (LPC-1) (intraperitoneal) in unknown mice
Conditions: T/C endpoint: median survival time, vehicle: carboxymethylcellulose (CMC), higher T/C = longer survival
Protocol: The antitumor activity of compounds was measured in mice bearing transplantable tumors. Survival or tumor size were measured and the results are expressed as the measurement made in the treated group (T) divided by the measurement made in the vehicle treated control group (C). The tumor model used in this assay is Lieberman Plasma Cell No. 1 (LPC-1) (intraperitoneal) in unknown mice

SMILES: ClCCN(CCCl)c1ccccc1
- T/C (dose: 1.6 mg/kg/injection, schedule: Q## X040 (oral)): 105 % of control [survivor count not shown]
- T/C (dose: 1.8 mg/kg/injection, schedule: Q01DX028 (sc)): 110 % of control [survivor count not shown]
- T/C (dose: 3.0 mg/kg/injection, schedule: Q01DX028 (sc)): 118 % of control [survivor count not shown]
- T/C (dose: 3.12 mg/kg/injection, schedule: Q01DX024 (oral)): 97 % of control [survivor count not shown]
- T/C (dose: 3.13 mg/kg/injection, schedule: Q01DX028 (sc)): 152 % of control [survivor count not shown]
- T/C (dose: 3.2 mg/kg/injection, schedule: Q03HX064 (oral)): 205 % of control [survivor count not shown]
- T/C (dose: 5.0 mg/kg/injection, schedule: Q01DX028 (sc)): 140 % of control [survivor count not shown]
- T/C (dose: 6.25 mg/kg/injection, schedule: Q01DX005 (oral)): 128 % of control [survivor count not shown]
- T/C (dose: 6.25 mg/kg/injection, schedule: Q01DX024 (ip)): 529 % of control [survivor count not shown]
- T/C (dose: 6.25 mg/kg/injection, schedule: Q01DX024 (oral)): 102 % of control [survivor count not shown]
- T/C (dose: 6.25 mg/kg/injection, schedule: Q01DX028 (oral)): 113 % of control [survivor count not shown]
- T/C (dose: 6.25 mg/kg/injection, schedule: Q01DX028 (sc)): 121 % of control [survivor count not shown]
- T/C (dose: 6.25 mg/kg/injection, schedule: Q02DX014 (sc)): 126 % of control [survivor count not shown]
- T/C (dose: 6.25 mg/kg/injection, schedule: Q## X010 (oral)): 126 % of control [survivor count not shown]
- T/C (dose: 6.25 mg/kg/injection, schedule: Q## X015 (oral)): 159 % of control [survivor count not shown]
- T/C (dose: 6.3 mg/kg/injection, schedule: Q01DX028 (oral)): 142 [survivor count not shown] and 186 % of control [survivor count not shown]
- T/C (dose: 6.3 mg/kg/injection, schedule: Q03HX064 (oral)): 402 % of control [survivor count not shown]
- T/C (dose: 6.3 mg/kg/injection, schedule: Q## X008 (oral)): 107 % of control [survivor count not shown]
- T/C (dose: 6.3 mg/kg/injection, schedule: Q## X040 (oral)): 132 % of control [survivor count not shown]
- T/C (dose: 8.4 mg/kg/injection, schedule: Q01DX028 (sc)): 164 [survivor count not shown] and 171 % of control [survivor count not shown]
- T/C (dose: 12.5 mg/kg/injection, schedule: Q01DX001 (sc)): 104 [survivor count not shown] and 110 % of control [survivor count not shown]
- T/C (dose: 12.5 mg/kg/injection, schedule: Q01DX005 (ip)): 208 % of control [survivor count not shown]
- T/C (dose: 12.5 mg/kg/injection, schedule: Q01DX005 (oral)): 240 [survivor count not shown] and 347 % of control [survivor count not shown]
- T/C (dose: 12.5 mg/kg/injection, schedule: Q01DX015 (oral)): 108 % of control [survivor count not shown]
- T/C (dose: 12.5 mg/kg/injection, schedule: Q01DX024 (ip)): 529 % of control [survivor count not shown]
- T/C (dose: 12.5 mg/kg/injection, schedule: Q01DX024 (oral)): 97 % of control [survivor count not shown]
- T/C (dose: 12.5 mg/kg/injection, schedule: Q01DX028 (oral)): 115 [survivor count not shown], 125 [survivor count not shown], 133 % of control [survivor count not shown]
- T/C (dose: 12.5 mg/kg/injection, schedule: Q01DX028 (sc)): 168 % of control [survivor count not shown]
- T/C (dose: 12.5 mg/kg/injection, schedule: Q02DX014 (sc)): 165 % of control [survivor count not shown]
- T/C (dose: 12.5 mg/kg/injection, schedule: Q03HX064 (oral)): 167 % of control [survivor count not shown]
- T/C (dose: 12.5 mg/kg/injection, schedule: Q07DX004 (sc)): 118 % of control [survivor count not shown]
- T/C (dose: 12.5 mg/kg/injection, schedule: Q## X008 (oral)): 125 % of control [survivor count not shown]
- T/C (dose: 12.5 mg/kg/injection, schedule: Q## X010 (ip)): 529 % of control [survivor count not shown]
- T/C (dose: 12.5 mg/kg/injection, schedule: Q## X010 (oral)): 428 % of control [survivor count not shown]
- T/C (dose: 12.5 mg/kg/injection, schedule: Q## X015 (ip)): 529 % of control [survivor count not shown]
- T/C (dose: 12.5 mg/kg/injection, schedule: Q## X015 (oral)): 380 % of control [survivor count not shown]
- T/C (dose: 12.5 mg/kg/injection, schedule: Q## X040 (oral)): 105 % of control [survivor count not shown]
- T/C (dose: 12.51 mg/kg/injection, schedule: Q07DX004 (sc)): 110 % of control [survivor count not shown]
- T/C (dose: 14.0 mg/kg/injection, schedule: Q01DX028 (sc)): 134 [survivor count not shown] and 145 % of control [survivor count not shown]
- T/C (dose: 23.0 mg/kg/injection, schedule: Q01DX028 (sc)): 157 [survivor count not shown] and 170 % of control [survivor count not shown]
- T/C (dose: 25.0 mg/kg/injection, schedule: Q01DX001 (oral)): 428 % of control [survivor count not shown]
- T/C (dose: 25.0 mg/kg/injection, schedule: Q01DX001 (sc)): 126 % of control [survivor count not shown]
- T/C (dose: 25.0 mg/kg/injection, schedule: Q01DX005 (ip)): 182 % of control [survivor count not shown]
- T/C (dose: 25.0 mg/kg/injection, schedule: Q01DX005 (oral)): 97 [survivor count not shown], 309 [survivor count not shown], 450 [survivor count not shown], 500 % of control [survivor count not shown]
- T/C (dose: 25.0 mg/kg/injection, schedule: Q01DX015 (oral)): 94 % of control [survivor count not shown]
- T/C (dose: 25.0 mg/kg/injection, schedule: Q01DX024 (ip)): 126 % of control [survivor count not shown]
- T/C (dose: 25.0 mg/kg/injection, schedule: Q01DX024 (oral)): 100 % of control [survivor count not shown]
- T/C (dose: 25.0 mg/kg/injection, schedule: Q01DX028 (oral)): 90 [survivor count not shown], 127 [survivor count not shown], 150 % of control [survivor count not shown]
- T/C (dose: 25.0 mg/kg/injection, schedule: Q01DX028 (sc)): 131 % of control [survivor count not shown]
- T/C (dose: 25.0 mg/kg/injection, schedule: Q02DX014 (sc)): 210 % of control [survivor count not shown]
- T/C (dose: 25.0 mg/kg/injection, schedule: Q03HX064 (oral)): 127 % of control [survivor count not shown]
- T/C (dose: 25.0 mg/kg/injection, schedule: Q04DX008 (oral)): 100 % of control [survivor count not shown]
- T/C (dose: 25.0 mg/kg/injection, schedule: Q07DX004 (sc)): 143 % of control [survivor count not shown]
- T/C (dose: 25.0 mg/kg/injection, schedule: Q14DX002 (sc)): 109 % of control [survivor count not shown]
- T/C (dose: 25.0 mg/kg/injection, schedule: Q## X008 (oral)): 175 % of control [survivor count not shown]
- T/C (dose: 25.0 mg/kg/injection, schedule: Q## X010 (ip)): 144 % of control [survivor count not shown]
- T/C (dose: 25.0 mg/kg/injection, schedule: Q## X010 (oral)): 105 [survivor count not shown] and 428 % of control [survivor count not shown]
- T/C (dose: 25.0 mg/kg/injection, schedule: Q## X015 (ip)): 100 % of control [survivor count not shown]
